Measured values: publication PMC12528448, “Resistance to CDK7 inhibitors directed by acquired mutation of a conserved residue in cancer cells” (The EMBO Journal, 2025)
The source holds more than one record for some entries. This list holds those alone. An entry can have further records. The values listed for one entry differ for a reason that is not stated; they may come from other doses, times, organisms or constructs than stated.

Experiments:
[1] = test system: PolII CTD Ser5 and CDK2 Thr160 phosphorylation in 22Rv1-SamR cells; assay: Immunoblotting of CDK7 targets, 22Rv1-SamR; format: cell-based, human
MCF7-CDK7-D97N cells = assay: Growth assay (SRB), MCF7 CDK7-D97N knock-in; details: MCF7 CDK7 D99N, 4 days, biological reps, listed as SY1365
MCF7 cells = assay: Growth assay (SRB), MCF7; details: biological reps, listed as SY1365
[2] = test system: PolII CTD Ser5 and CDK2 Thr160 phosphorylation in 22Rv1 cells; assay: Immunoblotting of CDK7 targets, 22Rv1; format: cell-based, human; details: 22Rv1, 50nM SY1365, Vehicle = 1.00

SMILES: CN(C)C/C=C/C(=O)Nc1ccc(C(=O)N[C@@]2(C)CCC[C@@H](Nc3ncc(Cl)c(-c4c[nH]c5ccccc45)n3)C2)nc1 [SY-1365]
- Relative Density P-Ser2 ([1]; 5nM SY1365, Vehicle = 1.00): 0.73, 0.16, 0.23
- Relative Density P-Ser2 ([1]; 50nM SY1365, Vehicle = 1.00): 0.35, 0.08, 0.17
- % Growth (MCF7-CDK7-D97N cells; Log10 Conc. (nM) 0.09): 12.74, 2.52, 17.22, 21.23%
- % Growth (MCF7-CDK7-D97N cells; Log10 Conc. (nM) -0.52): 31.61, 15.96, 34.41, 34.30%
- % Growth (MCF7 cells; Log10 Conc. (nM) 0.09, 4 days): 20.98, 18.77, 40.32, 44.81%
- % Growth (MCF7 cells; Log10 Conc. (nM) 0.69, 4 days): 9.26, 3.41, 18.08, 20.14%
- Relative Density P-Ser2 [2]: 0.17 and 0.27
